# Source: the supplement of paper PMC11237882
# Some of the results follow. Values are worked out from sequencing counts and are noisy.
# T1: Homer1 EVH1 domain
# T1 chain: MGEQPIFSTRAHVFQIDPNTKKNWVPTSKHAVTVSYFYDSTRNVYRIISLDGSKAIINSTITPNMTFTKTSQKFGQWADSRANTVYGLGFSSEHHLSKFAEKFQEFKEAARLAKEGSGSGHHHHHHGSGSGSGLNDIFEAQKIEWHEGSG
# Molecular target: T1, Homer1 EVH1 domain
# Assay: enrichment score (AUC of log2 frequency ratio across FACS sorting rounds) (log2 AUC); higher = stronger enrichment for Homer1 EVH1 binding
row,Binder,enrichment score
1,QTNLGFIHAFVAAISVIIVSELGDKTFFIAAIMAMH,-0.671
2,HSSLYLGILNAIAMIGPIIGFTLGSLFSKMYVDIGY,0.761
3,MALPFALLMALVVLSCKSSCSLDCDLPQTHSLGHRR,3.9
4,NKTTYENWREIHHLVFHVANICFAVGLVIPTTLHLH,-0.264
5,EEPSTSVPPTASEVPSTSLPPTPGEGTSTSVPPTAY,1.5
6,NSLKNVLNILIVYMLFMFIFAVIAVQLFKGKFFYCT,0.996
7,HLQPVPEPETVLKNQEVEFGRNRERLQFFKWSSRVF,-4.81
8,RVGRTMHHFGYLLLVSGLTTSAAFYASYLSRLPAVC,3.61
9,HGEGSDTVTPSRAFAWFVTVFISGIVSAAILAVFKY,1.84
10,GALWLGVLRLLLFKLLLFDLLLTCSCLCDPAGPLPS,1.33
11,HLILLAIMTITFAVCSLPFTIFAYMNETSSRKEKWE,2.46
12,MCSRVPLLLPLLLLLALGPGVQGCPSGCQCSQPQTV,1.68
13,TQEGWVDVMDQTLNAVGHMWAPVVAIYFILYHLFAT,3.98
14,VLWVLVIVPYLYSTFVSLFLTIKRRREGKTDYYARK,0.89
15,PPQLFASAAAAPCPLRGFLPPPPRLFITPAAFCPRR,2.74
16,EGLVISVGGFSLLCILCGLGFVSLAMSGMMIASYVV,1.74
17,IFQDVIETRGREYAGLYDDISTQGWFIGLMCAIALL,1.11
18,LFVIFLLAYVTTIGGTLSILAAILMETKLHSPMYFF,2.55
19,GILITLMTFSIIELFISLPFSILGCHSEDCDCEQCS,1.2
20,AAAIQGLWALISGLAMGLFYLLEYSRRKRSKSQNIL,4.2
21,RERLRAGLAGTGASLWFVAGLGLLYALRIPLRLCEN,1.12
22,EKKSPVGLHFLFLLGTLGLFGLTFAFIIQEDETICS,0.174

row,Binder,enrichment score
1,NEIQTVRKINSLFQVLTVLFFLEVVGFKNLALMDSS,1.09
2,NSPNYGLLLLWASLSNAVPVAFWTLAYVLSHPDIHK,3.37
3,PRPPEAQMVLQPQPQLFFFLSFFLFLFLFLFFFSRD,-0.31
4,GSRNLRAAHALEHTFAPVTDGAISTLLGLLMLAGSH,2.65
5,YVREPPNAKPDWLKVGFTLGTTVFLWIYLIKQHNED,-0.636
6,LEENEISPSLYAAPWFLTLFASQFSLGFVARVFDII,-1.44
7,MLRMRTAGWARGWCLGCCLLLPLSLSLAAAKQLLRY,2.38
8,LLHLAVFLWIIIAINFSNSGVKSQSSTYLPSGKILK,-1.85
9,IGVVVASCFSLILLSYIQIIQAILRIHTADGRRRAF,2.95
10,LGQASFEAMASIINRLHKNLEGNHDQHGRNSLLASY,1.57
11,MGLLVFVRNLLLALCLFLVLGFLYYSAWKLHLLQWE,2.35
12,KSMILSHFFRHPNITTYWTVFTVGSWLWVISPFMAY,3.28
13,RFPDILRVFWLTRVTAQATVLMYILRMANETDSFFI,-0.635
14,MPPLWALLALGCLLFGSAVNLQPQLASVTFATNNPT,4.73
15,ELQMRRSSLPATDAALIFVLTIGVIICVFIIFLLIF,0.275
16,SLVLSQESEGKMCFLNKLLLLAVLGCLSQIPTVPED,3.07
17,KLRGDPLLGTPDIRSRAFFCALLNILSIGCAYSAVQ,2.55
18,LKNATGLGLIVTSTGILILLHYYVFSTAIGLTSFVI,0.711
19,QLFFINHVILTDTFIGYLVGNTLWLVAVGYYIYVTF,-0.388
20,TRSGIISTLIINIICIITTITAVTLTIIELSHFNSV,-2.79
21,RTAYVYRVPEEAKILFLALNIVYGVLPQLLAYRCIY,1.68
22,MAVFKTTLWRLISGTLGIICLSLMATLGILLKNSFI,2.27
